To fix the notation:
B1: anti-TrkA scFv CRB0036 (scFv)
scFv: DIVMTQAAPSVPVTPGESVSISCRSSKSLLHSSGITSLYWYLQRPGQSPQLPIYRMSSLASGVPDRFSVSGSGTAFTLRISRVEAEDVGVYYCMQHLEYPLTFGAGTKLELKRSGGSTSGSGKPGSGEGSSGTQVQLQQSGAELLKPGASVKISCKATGYTFSNYWIEWVKQRPGHGLEWIGEILPGSGSAHYSEKFKDKATFTADTSSNTAYMQLSSLTSEDSAVYFCTRSPPNPGYWGQGTSVTVSS
notes: From mSPLINT selection
B2: anti-TrkA scFv CRB0072 (scFv)
scFv: DIQMTQSPISLSATVGDRVTITCRASQSIGRYLNWYQQKPGKAPKLLIYGASSLESGVPSRFSGSGSGTVFTLTISGLQPEDFATYCCQQSHSTAWTFGQGTKVEIKSGGSTSGSGKPGSGEGSSGTEVQLVETGGGLVQPGSSLRLSCATSGFTFINYGVHWVRQPPGKGLEWVASIWYEGSNEKYADSVKGRFTISRDNSRYTLHLQLNSLRAEDTADYYCVRDRGTGDYRNSRFYYGMDVWGQGTTVTVSS
notes: From hSPLINT_09 selection
B3: anti-TrkA scFv CRB0084 (scFv)
scFv: QPVLTQPPSVSVAPRQTATITCGGNYIGSKSVHWYQQKPGQDPVLVVNDDSDRPSGIPERFSGSNSANTATLTISGVEAGDEADYYCQVWDSSTEPVVFGGGTKLTVLSGGSTSGSGKPGSGEGSSGTQVQLQQWGAGLLRPSETLSLTCTVSGGSFSDSYWTWIRQSPGKGLEWIGENNHRGSTNYSPTLRSRLSISIDSSKNQFSLKLSSVTAADTAVYYCARVPYRLRSRIFDVWGQGTMVTVSS
notes: From hSPLINT_09 selection
B4: anti-TrkA scFv CRB0089 (scFv)
scFv: QTVVTQEPSVSGAPGQRVTISCTGSSSIIGAGYEVHWYQHLPGTAPKLLIYDSINRPSGVPDRFSGSKSGTSASLAITGLQAEDEADYYCQSSAIFGGGTKLTVLSGGSTSGSGKPGSGEGSSGTQVQLQESGPGLVKPSQTLSLTCAISGDSVSSNSAAWNWIRQSPSRGLEWLGRTFHRSRWYNEYPVSVRSRITINPDTSNNQFTLQLNSVTPDDTAVYYCARAPVAGLTFDIWGQGTMVTVSS
notes: From hSPLINT_09 selection
B5: anti-TrkA scFv CRB0088 (scFv)
scFv: QPVLTQSPPASASLGASVKLTCTLSSGHSSYAIAWHQQQPEKGPRYLMKVNSDGSHNKGDGIPDRFSGSRSGAERYLTISSLHSEDEADYYCQTWGAGGVVFGGGTKLTVLSGGSTSGSGKPGSGEGSSGTEVQLLESGGGLVQPGGSLRLSCAASGFTFSDHYMDWVRQAPGKGLEWVGRIRNKANSYTTEYAASVKGRFTISRDDSKKTLYLQMTSLKTDDTALYYCARDLGASDAFDLWGQGTMVTVSS
notes: From hSPLINT_09 selection
B6: anti-TrkA scFv CRB0069 (scFv)
scFv: QPGLTQPPSASGTPGQRVTISCTGSSSNVGAGYTVHWYQQLPGTAPTLLIYDNNNRPSGVPDRFSGSRSGTSASLAITGLRAEDEADYYCQSYDRSRVYVFGTGTKLTVLSGGSTSGSGKPGSGEGSSGTQVQLQQSGPGLVKPSQTLSLTCAISGDSVSSNSAAWNWIRQSPSRGLERLGRTYYRSKWYNDYAESVKSRIIINSGTSKNQFSLHLNSVTPEDTAVYYCGRAKDGWYDAFDIWGQGTTVTVSS
notes: From hSPLINT_09 selection
B7: anti-TrkA scFv CRB0022 (scFv)
scFv: DIVLTQSPALMSASPGEKVTMTCSASSSVSYMYWYQQKPRSSPKPWIYLTSNLASGVPARFSGSGSGTSYSLTISSMEAEDAATYYCQQWSSNPYTFGGRTRLEIKPSGGSTSGSGKPGSGEDSSGAQVQLQQSGAELVKPGASVELSCTASGFNIKDTYMHWVKQRPEQGLEWIGGIDPANGNTIYVPKFQGKATITADTSSNTAYLQLSSLTSEDTAVYYCARGGYDFDYAMDYWGQGTSVTVSS
notes: From mSPLINT selection
B8: CRB0089_IgG4 (antibody, V domains shown)
VH: QVQLQESGPGLVKPSQTLSLTCAISGDSVSSNSAAWNWIRQSPSRGLEWLGRTFHRSRWYNEYPVSVRSRITINPDTSNNQFTLQLNSVTPDDTAVYYCARAPVAGLTFDIWGQGTMVTVSS
VL: QTVVTQEPSVSGAPGQRVTISCTGSSSIIGAGYEVHWYQHLPGTAPKLLIYDSINRPSGVPDRFSGSKSGTSASLAITGLQAEDEADYYCQSSAIFGGGTKLTVL
notes: Whole human IgG4 made in CHO-S cells; also called mAb CRB0089_IgG4; anti-TrkA CRB0089_IgG4

The chains behind the UniProt entries cited, without tags or fusion partners. Residues count along the entry.
UniProt P04629, residues 33-423: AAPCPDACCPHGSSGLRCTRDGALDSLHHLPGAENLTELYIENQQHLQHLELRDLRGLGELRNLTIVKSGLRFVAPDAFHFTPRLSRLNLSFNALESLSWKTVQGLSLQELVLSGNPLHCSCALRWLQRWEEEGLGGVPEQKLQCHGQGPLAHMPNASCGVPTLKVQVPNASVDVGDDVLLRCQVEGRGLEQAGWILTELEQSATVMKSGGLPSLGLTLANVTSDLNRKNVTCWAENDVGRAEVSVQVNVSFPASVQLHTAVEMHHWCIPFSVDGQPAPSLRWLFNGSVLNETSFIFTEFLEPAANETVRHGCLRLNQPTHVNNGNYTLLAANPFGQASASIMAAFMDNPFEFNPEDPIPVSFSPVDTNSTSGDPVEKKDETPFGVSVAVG
UniProt Q16620, residues 32-430: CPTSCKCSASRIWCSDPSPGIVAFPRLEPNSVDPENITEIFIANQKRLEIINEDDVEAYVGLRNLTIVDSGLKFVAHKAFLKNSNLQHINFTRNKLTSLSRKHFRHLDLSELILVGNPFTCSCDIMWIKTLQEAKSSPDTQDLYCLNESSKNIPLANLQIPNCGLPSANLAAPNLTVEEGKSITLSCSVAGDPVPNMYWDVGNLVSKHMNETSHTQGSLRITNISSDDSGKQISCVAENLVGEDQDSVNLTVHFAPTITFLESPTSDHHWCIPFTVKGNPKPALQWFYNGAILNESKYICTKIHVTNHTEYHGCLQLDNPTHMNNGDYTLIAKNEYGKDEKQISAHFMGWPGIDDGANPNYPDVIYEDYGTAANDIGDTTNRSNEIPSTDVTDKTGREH
UniProt Q16288, residues 32-429: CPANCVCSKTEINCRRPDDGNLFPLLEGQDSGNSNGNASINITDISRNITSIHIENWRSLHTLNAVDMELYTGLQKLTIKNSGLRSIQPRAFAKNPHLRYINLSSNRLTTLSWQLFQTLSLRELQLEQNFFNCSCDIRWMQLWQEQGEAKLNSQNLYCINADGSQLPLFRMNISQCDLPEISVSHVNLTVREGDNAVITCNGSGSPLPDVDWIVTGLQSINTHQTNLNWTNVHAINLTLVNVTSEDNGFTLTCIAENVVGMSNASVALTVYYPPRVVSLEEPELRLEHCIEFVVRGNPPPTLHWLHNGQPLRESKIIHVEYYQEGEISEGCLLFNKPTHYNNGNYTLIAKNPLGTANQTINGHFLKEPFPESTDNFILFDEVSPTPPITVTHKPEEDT

These are yes or no findings as the source states them, for the method shown. Some binding calls cover weakened binding; strength is not graded here.

The target of the first experiment is human TrkA immunoadhesin (human; Camelus dromedarius) (UniProt P04629). Nature of the experiment: ELISA, coated hTrkA-Fc, scFv at 50 and 5 ug/mL, OD 450 nm. Background: In an ELISA, binding on a coated surface is turned into a signal by an enzyme label.
On to B1, for which the binding result was “binds”.

Take B2: the binding entry is listed as “binds”.

Take B3: the binding entry is “binds”.

Take B4: the binding entry is “binds”.

Regarding B5, the binding result is “binds”.

Turning to B6, the binding result is on record as “binds”.

B7: the binding entry is listed as “binds”.

Another experiment has the same target. As to the kind of experiment: ELISA on coated hTrkA-Fc.
Take B1: the binding entry was “binds”.

As to B2, the binding result was “binds”.

Consider B3, for which the binding result is “binds”.

With B8, the binding entry is given as “binds”.

As to B4, the binding entry was “binds”.

In the case of B5, the binding entry was “binds”.

For the molecule B6, the binding result is “binds”.

B7: the binding entry is “binds”.

The target is the same in a further experiment. Nature of the experiment: specificity ELISA, hTrkA-Fc coated at 2 µg/mL, mAb 20-0.02 ug/mL, OD 450 nm.
For the molecule B8, the binding entry is recorded as “binds”.

A further experiment shares this target. As to the kind of experiment: ELISA on coated hTrkA-Fc, antibody 20 µg/mL-0.02 µg/mL.
For B8, the binding result was “binds”.

The target in a further experiment is T1, human TrkB immunoadhesin (human; Camelus dromedarius, UniProt Q16620 32-430).
T1 construct: extracellular domain; also called hTrkB-Fc; TrkB immunoadhesins; not shown: Fc portion (immunoglobulin heavy chain constant region) of IgG2a camel antibody (Camelus dromedarius)
As to the kind of experiment: specificity ELISA, antigens coated at 2 µg/mL, scFv at 50 ug/mL (upper panel) and 5 ug/mL (lower panel), OD 450 nm. On the procedure:
(§1) FIG. 3. Specificity ELISA of isolated anti-TrkA scFvs versus human TrkA immunoadhesin (hTrkA-Fc), human TrkB immunoadhesins (hTrkB-Fc), human TrkC immunoadhesins (hTrkC-Fc) and human p75 immunoadhesins (hp75-Fc). Human antigens were coated at 2 μg/mL. Anti-TrkA scFvs were used at 50 μg/mL (upper panel) and/or 5 μg/mL (lower panel). The mean absorbance at 450 nm of the experiments performed in duplicate wells is shown with SD indicated by the bars.
With B6, the binding result is “binds”.

The target of a further experiment is T2, human TrkC immunoadhesin (human; Camelus dromedarius, UniProt Q16288 32-429).
T2 construct: extracellular domain; also called hTrkC-Fc; TrkC immunoadhesins; not shown: Fc portion (immunoglobulin heavy chain constant region) of IgG2a camel antibody (Camelus dromedarius)
The experiment is described as above. On the procedure:
as §1
With B1, the binding entry is reported as “binds”.

Turning to B6, the binding result is “binds”.

Another experiment concerns the target T1, human TrkB immunoadhesin. Nature of the experiment: ELISA on coated immunoadhesin.
Consider B6, for which the binding result is “binds”.

A further experiment addresses T2, human TrkC immunoadhesin. As to the kind of experiment: ELISA on coated immunoadhesin.
Regarding B1, the binding result is given as “binds”.

As for B6, the binding entry is on record as “binds”.

A further experiment addresses human TrkA immunoadhesin (human; Camelus dromedarius) (UniProt P04629). As to the kind of experiment: specificity ELISA, antigens coated at 2 µg/mL, scFv at 50 ug/mL (upper panel) and 5 ug/mL (lower panel), OD 450 nm.
For the molecule B1, the binding result was “binds”.

As for B2, the binding result is “binds”.

For the molecule B3, the binding result is on record as “binds”.

For B4, the binding result is “binds”.

Take B5: the binding entry is “binds”.

As to B6, the binding result is on record as “binds”.

For B7, the binding entry is “binds”.

Values taken from patent publication US20160244529A1 (ROTTAPHARM BIOTECH S R L, published 2016).
